According to publication PMC7515921, “MFSD7C switches mitochondrial ATP synthesis to thermogenesis in response to heme” (Nature Communications, 2020):

T1: MFSD7C tagged with both Myc and FLAG epitopes (murine) (mouse) (UniProt Q91X85)
T1 sequence: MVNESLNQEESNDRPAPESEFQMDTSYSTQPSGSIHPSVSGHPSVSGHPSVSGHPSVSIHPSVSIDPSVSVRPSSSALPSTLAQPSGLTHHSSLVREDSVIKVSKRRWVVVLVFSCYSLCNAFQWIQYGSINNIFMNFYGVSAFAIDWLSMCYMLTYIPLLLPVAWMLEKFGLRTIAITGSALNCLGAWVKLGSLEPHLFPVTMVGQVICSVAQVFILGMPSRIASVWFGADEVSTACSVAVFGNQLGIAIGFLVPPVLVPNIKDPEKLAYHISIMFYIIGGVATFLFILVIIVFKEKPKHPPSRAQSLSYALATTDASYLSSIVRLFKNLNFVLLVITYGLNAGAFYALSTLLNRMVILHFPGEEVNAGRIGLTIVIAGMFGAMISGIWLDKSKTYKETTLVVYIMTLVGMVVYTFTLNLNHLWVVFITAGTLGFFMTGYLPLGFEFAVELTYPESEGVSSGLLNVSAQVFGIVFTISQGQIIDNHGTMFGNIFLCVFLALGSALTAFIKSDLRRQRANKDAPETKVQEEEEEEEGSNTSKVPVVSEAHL

B1: Tmx3 (protein, UniProt Q8BXZ1 30-456)
chain: FVEDLNESFKDNRKDDIWLVDFYAPWCGHCKKLEPIWNEVGLEMKSIGSPVKVGKMDATSYSSIASEFGVRGYPTIKLLKGDLAYNYRGPRTKDDIIEFAHRVSGALIRPLPSQQMFDHVRKRHRVFFVYIGGESPLKEKYIDAASELIVYTYFFSASEDVVPEYVTLKEMPAVLVFKDDTYFVYDEYEDGDLSSWISRERFQNYLTMDGFLLYELGDTGKLVAIAVIDEKNTSLEHTRLKSIIQEVARDFRDHFHRDFQFGHMDGNDYINTLLMDELTVPTIVVLNTSNQQYFLLDRHIKDASDMVQFINSILDGTVPAQGGDSIFQRLKRIVFDAKSTIVSIFKSSPLMGCFLFGLPLGVISIMCYGIYTADTDGGYIEERYEVSKSEMENQEQIEESKEQESSSGGSLAPTVQEPKDVLEKKKD
B2: Fcgr1 (protein, UniProt P26151 25-404)
chain: EVVNATKAVITLQPPWVSIFQKENVTLWCEGPHLPGDSSTQWFINGTAVQISTPSYSIPEASFQDSGEYRCQIGSSMPSDPVQLQIHNDWLLLQASRRVLTEGEPLALRCHGWKNKLVYNVVFYRNGKSFQFSSDSEVAILKTNLSHSGIYHCSGTGRHRYTSAGVSITVKELFTTPVLRASVSSPFPEGSLVTLNCETNLLLQRPGLQLHFSFYVGSKILEYRNTSSEYHIARAEREDAGFYWCEVATEDSSVLKRSPELELQVLGPQSSAPVWFHILFYLSVGIMFSLNTVLYVKIHRLQREKKYNLEVPLVSEQGKKANSFQQVRSDGVYEEVTATASQTTPKEAPDGPRSSVGDCGPEQPEPLPPSDSTGAQTSQS
B3: Phb (protein, UniProt P67778 1-272)
chain: MAAKVFESIGKFGLALAVAGGVVNSALYNVDAGHRAVIFDRFRGVQDIVVGEGTHFLIPWVQKPIIFDCRSRPRNVPVITGSKDLQNVNITLRILFRPVASQLPRIYTSIGEDYDERVLPSITTEILKSVVARFDAGELITQRELVSRQVSDDLTERAATFGLILDDVSLTHLTFGKEFTEAVEAKQVAQQEAERARFVVEKAEQQKKAAIISAEGDSKAAELIANSLATAGDGLIELRKLEAAEDIAYQLSRSRNITYLPAGQSVLLQLPQ
B4: Cds2 (protein, UniProt Q99L43 1-444)
chain: MTELRQRVVREDAPPEDKESESEAKLDGETASDSESRAETAPLPTSVDDTPEVLNRALSNLSSRWKNWWVRGILTLAMIAFFFIIIYLGPMVLMMIVMCVQIKCFHEIITIGYNVYHSYDLPWFRTLSWYFLLCVNYFFYGETVTDYFFTLVQREEPLRILSKYHRFISFALYLTGFCMFVLSLVKKHYRLQFYMFGWTHVTLLIVVTQSHLVIHNLFEGMIWFIVPISCVICNDIMAYMFGFFFGRTPLIKLSPKKTWEGFIGGFFATVVFGLLLSYVMSGYRCFVCPVEYNNDTNSFTVDCEPSDLFRLQEYNIPGVIQSAIGWKTVRMYPFQIHSIALSTFASLIGPFGGFFASGFKRAFKIKDFANTIPGHGGIMDRFDCQYLMATFVNVYIASFIRGPNPSKLIQQFLTLRPDQQLHIFNTLKSHLTDKGILTSALEDE
B5: Fcgr3 (protein, UniProt P08508 31-261)
chain: ALPKAVVKLDPPWIQVLKEDMVTLMCEGTHNPGNSSTQWFHNGRSIRSQVQASYTFKATVNDSGEYRCQMEQTRLSDPVDLGVISDWLLLQTPQRVFLEGETITLRCHSWRNKLLNRISFFHNEKSVRYHHYKSNFSIPKANHSHSGDYYCKGSLGSTQHQSKPVTITVQDPATTSSISLVWYHTAFSLVMCLLFAVDTGLYFYVRRNLQTPREYWRKSLSIRKHQAPQDK
B6: Slc33a1 (protein, UniProt Q99J27 1-550)
chain: MSPTISHKDSSRQRRSGMFSHALDMKSGPLPPGGWDDSRRDSVGGEGDREVLLGDAGPGDLPKAPRSYRSELSSILLLLFLYVLQGIPLGLAGSIPLILQSKNVSYTDQAFFSFVFWPFSLKLLWAPLVDAVYFKNFGRRKSWLVPTQYTLGIFMIYLSTQVDRLLGNIDGRTPDVVALTVTFFLFEFLAATQDIAVDGWALTMLSRENVGYASTCNSVGQTAGYFLGNVLFLALESADFCNKYLRFQPQPRGIVTLSDFLFFWGTVFLITTTLVALLKKENREASIVKEETQGITDTYKLLFSIIKMPAVLAFCLLILTSKIGFSAADAVTGLKLVEEGVPKEHLALLAVPMVPLQIILPLLISKYTAGPQPLNIFYKAMPYRLLLGLEYALLVWWTPKVEHQGGFPLYYYIIVLLSYALHQVTLYSMYVSIMAFNAKVSDPLIGGTYMTLLNTVSNLGGNWPSTVALWLVDPLTVKECVGASNQNCRTPDAIELCKKLGGSCVTALDGYYVESIICVLIGFGWWFFLGPKFKKLQDEGPSSWKCKRNN
B7: Slc25a3 (protein, UniProt Q8VEM8 46-357)
chain: AVEEYSCEFGSMKYYALCGFGGVLSCGLTHTAVVPLDLVKCRMQVDPQKYKGIFNGFSITLKEDGVRGLAKGWAPTLIGYSMQGLCKFGFYEVFKALYSNILGEENTYLWRTSLYLASSASAEFFADIALAPMEAAKVRIQTQPGYANTLREAVPKMYKEEGLNAFYKGVAPLWMRQIPYTMMKFACFERTVEALYKFVVPKPRSECTKAEQLVVTFVAGYIAGVFCAIVSHPADSVVSVLNKEKGSTASQVLQRLGFRGVWKGLFARIIMIGTLTALQWFIYDSVKVYFRLPRPPPPEMPESLKKKLGLTE
B8: Slc25a22 (protein, UniProt Q9D6M3 1-323)
chain: MADKQISLPAKLINGGIAGLIGVTCVFPIDLAKTRLQNQQNGQRMYASMSDCLIKTIRSEGYFGMYRGAAVNLTLVTPEKAIKLAANDFFRHQLSKDGQKLTLPKEMLAGCGAGTCQVIVTTPMEMLKIQLQDAGRIAAQRKILAAQAQLSAQGGAQPSVEAPAPPRPTATQLTRDLLRNHGIAGLYKGLGATLLRDVPFSIVYFPLFANLNQLGRPSSEEKSPFYVSFLAGCVAGSAAAVAVNPCDVVKTRLQSLERGVNEDTYSGFLDCARKIWRHEGPSAFLKGAYCRALVIAPLFGIAQVVYFLGIAESLLGLLQEPQA
B9: Asph (protein, UniProt Q8BSY0 1-741)
chain: MAPRKNAKGGGGNSSSSGSGSGSGSGSPSTGSSGSSSSPGARREAKHGGHKNGRRGGISGGSFFTWFMVIALLGVWTSVAVVWFDLVDYEEVLGKLGVYDADGDGDFDVDDAKVLLGLKERSPSERTFPPEEEAETHAELEEQAPEGADIQNVEDEVKEQIQSLLQESVHTDHDLEADGLAGEPQPEVEDFLTVTDSDDRFEDLEPGTVHEEIEDTYHVEDTASQNHPNDMEEMTNEQENSDPSEAVTDAGVLLPHAEEVRHQDYDEPVYEPSEHEGVAISDNTIDDSSIISEEINVASVEEQQDTPPVKKKKPKLLNKFDKTIKAELDAAEKLRKRGKIEEAVNAFEELVRKYPQSPRARYGKAQCEDDLAEKQRSNEVLRRAIETYQEAADLPDAPTDLVKLSLKRRSERQQFLGHMRGSLLTLQRLVQLFPSDTTLKNDLGVGYLLLGDNDSAKKVYEEVLNVTPNDGFAKVHYGFILKAQNKISESIPYLKEGIESGDPGTDDGRFYFHLGDAMQRVGNKEAYKWYELGHKRGHFASVWQRSLYNVNGLKAQPWWTPRETGYTELVKSLERNWKLIRDEGLMVMDKAKGLFLPEDENLREKGDWSQFTLWQQGRKNENACKGAPKTCALLEKFSETTGCRRGQIKYSIMHPGTHVWPHTGPTNCRLRMHLGLVIPKEGCKIRCANETRTWEEGKVLIFDDSFEHEVWQDASSFRLIFIVDVWHPELTPQQRRSLPAI
B10: Acsl5 (protein, UniProt Q8JZR0 1-683)
chain: MLFIFNFLFSPLPTPALICLLTFGTAIFLWLINRPQPVLPLIDLDNQSVGIEGGARRGAFQKNNDLILYYFSDAKTLYENFQRGLAVSDNGPCLGYRKPNQPYKWISYKQVSDRAEYLGSCLLHKGYKSSQDQFVGIFAQNRPEWVISELACYTYSMVAVPLYDTLGTEAIIFVINRADIPVVICDTPQKATMLVENVEKGLTPGLKTIILMDPFDDDLMKRGEKCGVEMLSLHDAENIGKENFKKPVPPKPEDLSVICFTSGTTGDPKGAMLTHENVVSNMAAFLKFLEPIFQPTSDDVTISYLPLAHMFERLVQGILFSCGGKIGFFQGDIRLLPDDMKALKPTVFPTVPRLLNRVYDKVQNEAKTPLKKFLLNLAIISKFNEVKNGIIRRDSLWDKLVFSKIQGSLGGKVRLMITGAAPISTPVLTFFRAAMGCWVFEAYGQTECTGGCSITSPGDWTAGHVGTPVACNFVKLEDVADMNYFSVNNEGEICIKGNNVFKGYLKDPEKTQEVLDKDGWLHTGDIGRWLPNGTLKIVDRKKNIFKLAQGEYIAPEKIENVYSRSRPVLQVFVHGESLRSFLIGVVVPDPDSLPSFAAKIGVKGSFEELCKNQCVKEAILEDLQKIGKEGGLKSFEQVKSIFVHPEPFTIENGLLTPTLKAKRVELAKFFQTQIKSLYESIEE
B11: Rdh13 (protein, UniProt Q8CEE7 1-334)
chain: MSRFLLPVSVVGTVIGGTVLLKDYVAGGACPSKATIPGKTVIVTGANTGIGKQTALELAKRGGNVILACRDMEKCEVAAKDIRGETLNPRVRAERLDLASLKSIREFARKVIKEEERVDILVNNAAVMRCPHWTTEDGFEMQFGVNYLGHFLLTNLLLDKLKASAPSRIINLSSLAHVAGHIDFEDLNWQMKKYDTKAAYCQSKLAVVLFTKELSHRLQGSGVTVNALHPGVARTELGRHTGMHNSAFSGFMLGPFFWLLFKSPQLAAQPSTYLAVAEELENVSGKYFDGLREKAPSPEAEDEEVARRLWTESARLVGLAMAHGSPGRGHAIPR
B12: Elovl1 (protein, UniProt Q9JLJ5 1-279)
chain: MEAVVNLYHELMKHADPRIQSYPLMGSPLLITSILLTYVYFILSLGPRIMANRKPFQLRGFMIVYNFSLVILSLYIVYEFLMSGWLSTYTWRCDPIDFSNSPEALRMVRVAWLFMLSKVIELMDTVIFILRKKDGQVTFLHVFHHSVLPWSWWWGIKIAPGGMGSFHAMINSSVHVVMYLYYGLSALGPVAQPYLWWKKHMTAIQLIQFVLVSLHISQYYFMPSCNYQYPIIIHLIWMYGTIFFILFSNFWYHSYTKGKRLPRAVQQNGAPATTKVKAN

Each binder was assayed against T1, MFSD7C tagged with both Myc and FLAG epitopes (murine) (mouse) (assay: affinity purification with mass spectrometry; lysate of MH-S cells expressing MFSD7C-FLAG-Myc (control: GFP alone); 20 mM Tris-HCl pH 7.4, 150 mM NaCl, 0.1% NP-40, 10% glycerol; anti-FLAG beads, 3x FLAG peptide elution, then anti-Myc beads; LC-MS/MS).

binding | Binder
binds | B1
binds | B2
binds | B3
binds | B4
binds | B5
binds | B6
binds | B7
binds | B8
binds | B9
binds | B10
binds | B11
binds | B12

Results are given in words; binding and its absence hold for the method and conditions named. Binding seen in cells or lysates may run through a third protein. These calls come from enrichment with a bait or labelling near it, and not all partners need be listed. Sequences can lack the tags named with a protein.
